Measured data: PubChem BioAssay AID743121 (NCATS, 2013)
The deposit covers about 26,000 reagents; this is a random part of them. 167 of them (0.63%) count as active. 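Calls are per gene from RSA p-values that are not deposited; an individual active-marked siRNA can sensitise only weakly.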 A number with no mark means an inactive call. The numbers tell different reagents against one gene apart.

- Assay: 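Partners whose loss is lethal together with topoisomerase I blockade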 (primary screen)
- Cells: MDA-MB-231 cells, a human breast cancer line
- Knock-down reagent: single siRNA against human genes, 20 nM siRNA (0.8 pmol per well)
- Duration: 120 h (drug added 48 h after transfection, read 72 h later)
- Challenge: camptothecin 20 nM (about EC30) for 72 h; vehicle 0.1% DMSO in parallel plates
- Measured: 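Cell viability by ATP luminescence (CellTiter-Glo) as % of non-targeting siRNA wells, and the log2 ratio of viability without drug over viability with camptothecin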
- Reading the numbers: log2 vehicle/camptothecin viability: higher = stronger sensitisation to camptothecin; viability with camptothecin and viability without drug: higher = more viable cells
- Call rule: 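Each gene scored by redundant siRNA activity (RSA) over its individual siRNA ratios; a gene is called active at p < 0.001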

| Gene | siRNA no. | log2 vehicle/camptothecin viability | viability with camptothecin (% of control) | viability without drug (% of control) |
| --- | --- | --- | --- | --- |
| AMPD1 (GeneID 270) | 1 | -0.685 | 90.9 | 56.5 |
| AMPD1 (GeneID 270) | 2 | 0.169 | 93.2 | 105 |
| AMPD1 (GeneID 270) | 3 | -0.648 | 20.5 | 13.1 |
| AMPD1 (GeneID 270) | 4 | -0.246 | 52 | 43.9 |
| ADM2 (GeneID 79924) | 1 | -0.0285 | 89.6 | 87.9 |
| ADM2 (GeneID 79924) | 2 | -0.46 | 55.8 | 40.5 |
| ADM2 (GeneID 79924) | 3 | 0.276 | 27.9 | 33.7 |
| ADM2 (GeneID 79924) | 4 | -0.348 | 34.8 | 27.3 |
| CD14 (GeneID 929) | 1 | -0.269 | 94.4 | 78.3 |
| CD14 (GeneID 929) | 2 | 0.272 | 45.3 | 54.7 |
| CD14 (GeneID 929) | 3 | -0.0998 | 68.6 | 64 |
| GALR1 (GeneID 2587) | 1 | -0.285 | 97 | 79.6 |
| GALR1 (GeneID 2587) | 2 | -0.333 | 37.2 | 29.5 |
| GALR1 (GeneID 2587) | 3 | -0.498 | 90.2 | 63.9 |
| GALR1 (GeneID 2587) | 4 | -0.391 | 65.1 | 49.6 |
| GALR1 (GeneID 2587) | 5 | -0.585 | 65.7 | 43.8 |
| OXSR1 (GeneID 9943) | 1 | -0.146 | 66.6 | 60.2 |
| OXSR1 (GeneID 9943) | 2 | -0.285 | 110 | 90.1 |
| OXSR1 (GeneID 9943) | 3 | 0.0377 | 60 | 61.6 |
| OXSR1 (GeneID 9943) | 4 | 0.00274 | 87.6 | 87.8 |
| CHRM3 (GeneID 1131) | 1 | 0.103 | 74.3 | 79.7 |
| CHRM3 (GeneID 1131) | 2 | -0.135 | 89.6 | 81.7 |
| CHRM3 (GeneID 1131) | 3 | -0.431 | 37.6 | 27.9 |
| CHRM3 (GeneID 1131) | 4 | 0.032 | 83.7 | 85.5 |
| KLF16 (GeneID 83855) | 1 | -0.443 | 40 | 29.4 |
| KLF16 (GeneID 83855) | 2 | -0.165 | 104 | 92.9 |
| KLF16 (GeneID 83855) | 3 | -0.276 | 94.8 | 78.3 |
| KLF16 (GeneID 83855) | 4 | 0.447 | 37.6 | 51.3 |
| WASF1 (GeneID 8936) | 1 | -0.622 | 52.1 | 33.9 |
| WASF1 (GeneID 8936) | 2 | -0.248 | 93.3 | 78.6 |
| WASF1 (GeneID 8936) | 3 | -0.116 | 103 | 95.3 |
| WASF1 (GeneID 8936) | 4 | -0.159 | 72.5 | 64.9 |
| DDR2 (GeneID 4921) | 1 | 0.00396 | 73 | 73.2 |
| DDR2 (GeneID 4921) | 2 | -0.404 | 88.4 | 66.8 |
| DDR2 (GeneID 4921) | 3 | 0.0589 | 89.9 | 93.7 |
| DDR2 (GeneID 4921) | 4 | -0.199 | 86.5 | 75.3 |
| SBK1 (GeneID 388228) | 1 | 1.36 | 30.5 | 78.1 |
| SBK1 (GeneID 388228) | 2 | 0.11 | 81.5 | 88 |
| SBK1 (GeneID 388228) | 3 | -0.141 | 121 | 109 |
| SBK1 (GeneID 388228) | 4 | -0.0129 | 49.5 | 49.1 |
| RAG1 (GeneID 5896) | 1 | -0.0937 | 107 | 101 |
| RAG1 (GeneID 5896) | 2 | -0.478 | 54.5 | 39.2 |
| RAG1 (GeneID 5896) | 3 | 0.0962 | 50.8 | 54.3 |
| RAG1 (GeneID 5896) | 4 | -0.000737 | 90.7 | 90.6 |

6 neighbouring entries from above, for reference:
| Gene | siRNA no. | log2 vehicle/camptothecin viability | viability with camptothecin (% of control) | viability without drug (% of control) |
| --- | --- | --- | --- | --- |
| CHRM3 (GeneID 1131) | 4 | 0.032 | 83.7 | 85.5 |
| KLF16 (GeneID 83855) | 1 | -0.443 | 40 | 29.4 |
| KLF16 (GeneID 83855) | 2 | -0.165 | 104 | 92.9 |
| KLF16 (GeneID 83855) | 3 | -0.276 | 94.8 | 78.3 |
| KLF16 (GeneID 83855) | 4 | 0.447 | 37.6 | 51.3 |
| WASF1 (GeneID 8936) | 1 | -0.622 | 52.1 | 33.9 |

Further records follow:
| Gene | siRNA no. | log2 vehicle/camptothecin viability | viability with camptothecin (% of control) | viability without drug (% of control) |
| --- | --- | --- | --- | --- |
| PSMB2 (GeneID 5690) | 1 | -0.138 | 17.7 | 16.1 |
| PSMB2 (GeneID 5690) | 2 | -0.657 | 28.8 | 18.3 |
| PSMB2 (GeneID 5690) | 3 | 0.275 | 4.84 | 5.86 |
| PSMB2 (GeneID 5690) | 4 | 0.023 | 62.9 | 63.9 |
| P2RY8 (GeneID 286530) | 1 | -0.319 | 106 | 84.9 |
| P2RY8 (GeneID 286530) | 2 | -0.274 | 38.8 | 32.1 |
| P2RY8 (GeneID 286530) | 3 | -0.438 | 76.2 | 56.3 |
| P2RY8 (GeneID 286530) | 4 | 0.225 | 53.3 | 62.3 |
| AREG (GeneID 374) | 1 | 0.0952 | 93.7 | 100 |
| AREG (GeneID 374) | 2 | -0.241 | 59.5 | 50.3 |
| AREG (GeneID 374) | 3 | -0.124 | 76.8 | 70.4 |
| AREG (GeneID 374) | 4 | -0.0123 | 59.2 | 58.7 |
| ARHGEF5 (GeneID 7984) | 1 | -0.182 | 102 | 90.3 |
| ARHGEF5 (GeneID 7984) | 2 | -0.00593 | 56.4 | 56.2 |
| ARHGEF5 (GeneID 7984) | 3 | 0.0545 | 95 | 98.6 |
| ARHGEF5 (GeneID 7984) | 4 | -0.472 | 119 | 85.4 |
| RNF166 (GeneID 115992) | 1 | -0.21 | 103 | 89.5 |
| RNF166 (GeneID 115992) | 2 | 0.417 | 62.5 | 83.5 |
| RNF166 (GeneID 115992) | 3 | -0.024 | 90.7 | 89.2 |
| RNF166 (GeneID 115992) | 4 | -0.11 | 109 | 101 |
| CACNA1G (GeneID 8913) | 1 | 0.246 | 36.1 | 42.8 |
| CACNA1G (GeneID 8913) | 2 | 0.442 | 29.4 | 40 |
| CACNA1G (GeneID 8913) | 3 | 0.114 | 73 | 79 |
| CACNA1G (GeneID 8913) | 4 | 0.0926 | 58.2 | 62 |
